# In PMC10470473:
# By UniProt entry, the sequences of proteins in these tests, tags left out.
# UniProt Q13547: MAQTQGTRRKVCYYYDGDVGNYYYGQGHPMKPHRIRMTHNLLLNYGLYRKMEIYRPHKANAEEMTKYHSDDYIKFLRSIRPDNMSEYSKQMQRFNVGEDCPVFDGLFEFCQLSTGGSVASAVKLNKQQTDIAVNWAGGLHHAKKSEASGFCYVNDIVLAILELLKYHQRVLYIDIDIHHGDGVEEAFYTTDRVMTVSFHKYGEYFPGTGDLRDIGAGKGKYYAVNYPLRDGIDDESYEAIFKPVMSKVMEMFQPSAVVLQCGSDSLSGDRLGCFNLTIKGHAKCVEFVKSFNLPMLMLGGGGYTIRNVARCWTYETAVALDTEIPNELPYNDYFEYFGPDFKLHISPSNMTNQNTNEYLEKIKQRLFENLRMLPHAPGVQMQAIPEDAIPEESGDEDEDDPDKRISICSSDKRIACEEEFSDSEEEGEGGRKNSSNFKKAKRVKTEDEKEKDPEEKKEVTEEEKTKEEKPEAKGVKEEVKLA
# UniProt Q92769: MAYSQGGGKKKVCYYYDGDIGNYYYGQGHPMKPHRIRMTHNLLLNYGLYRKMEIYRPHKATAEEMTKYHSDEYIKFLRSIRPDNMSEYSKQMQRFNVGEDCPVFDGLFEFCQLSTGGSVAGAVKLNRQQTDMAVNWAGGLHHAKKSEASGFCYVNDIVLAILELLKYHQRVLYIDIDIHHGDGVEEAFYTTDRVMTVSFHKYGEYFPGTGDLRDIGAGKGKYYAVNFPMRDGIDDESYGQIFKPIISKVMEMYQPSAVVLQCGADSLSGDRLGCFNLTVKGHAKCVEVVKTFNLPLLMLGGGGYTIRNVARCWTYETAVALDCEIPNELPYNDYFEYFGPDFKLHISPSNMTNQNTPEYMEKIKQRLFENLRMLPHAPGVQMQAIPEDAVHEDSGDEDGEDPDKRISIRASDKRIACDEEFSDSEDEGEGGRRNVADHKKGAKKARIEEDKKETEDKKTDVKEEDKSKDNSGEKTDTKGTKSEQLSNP
# Results are given in words; binding and its absence hold for the method and conditions named. In cells and extracts the contact can be indirect. Some entries that bind do so weakly or less than the wild type. For some of these results: Sequences can lack the tags named with a protein.
# T1: V5-tagged EHMT1 wild type (euchromatin histone methyltransferase 1), Q9H9B1
# T1 chain: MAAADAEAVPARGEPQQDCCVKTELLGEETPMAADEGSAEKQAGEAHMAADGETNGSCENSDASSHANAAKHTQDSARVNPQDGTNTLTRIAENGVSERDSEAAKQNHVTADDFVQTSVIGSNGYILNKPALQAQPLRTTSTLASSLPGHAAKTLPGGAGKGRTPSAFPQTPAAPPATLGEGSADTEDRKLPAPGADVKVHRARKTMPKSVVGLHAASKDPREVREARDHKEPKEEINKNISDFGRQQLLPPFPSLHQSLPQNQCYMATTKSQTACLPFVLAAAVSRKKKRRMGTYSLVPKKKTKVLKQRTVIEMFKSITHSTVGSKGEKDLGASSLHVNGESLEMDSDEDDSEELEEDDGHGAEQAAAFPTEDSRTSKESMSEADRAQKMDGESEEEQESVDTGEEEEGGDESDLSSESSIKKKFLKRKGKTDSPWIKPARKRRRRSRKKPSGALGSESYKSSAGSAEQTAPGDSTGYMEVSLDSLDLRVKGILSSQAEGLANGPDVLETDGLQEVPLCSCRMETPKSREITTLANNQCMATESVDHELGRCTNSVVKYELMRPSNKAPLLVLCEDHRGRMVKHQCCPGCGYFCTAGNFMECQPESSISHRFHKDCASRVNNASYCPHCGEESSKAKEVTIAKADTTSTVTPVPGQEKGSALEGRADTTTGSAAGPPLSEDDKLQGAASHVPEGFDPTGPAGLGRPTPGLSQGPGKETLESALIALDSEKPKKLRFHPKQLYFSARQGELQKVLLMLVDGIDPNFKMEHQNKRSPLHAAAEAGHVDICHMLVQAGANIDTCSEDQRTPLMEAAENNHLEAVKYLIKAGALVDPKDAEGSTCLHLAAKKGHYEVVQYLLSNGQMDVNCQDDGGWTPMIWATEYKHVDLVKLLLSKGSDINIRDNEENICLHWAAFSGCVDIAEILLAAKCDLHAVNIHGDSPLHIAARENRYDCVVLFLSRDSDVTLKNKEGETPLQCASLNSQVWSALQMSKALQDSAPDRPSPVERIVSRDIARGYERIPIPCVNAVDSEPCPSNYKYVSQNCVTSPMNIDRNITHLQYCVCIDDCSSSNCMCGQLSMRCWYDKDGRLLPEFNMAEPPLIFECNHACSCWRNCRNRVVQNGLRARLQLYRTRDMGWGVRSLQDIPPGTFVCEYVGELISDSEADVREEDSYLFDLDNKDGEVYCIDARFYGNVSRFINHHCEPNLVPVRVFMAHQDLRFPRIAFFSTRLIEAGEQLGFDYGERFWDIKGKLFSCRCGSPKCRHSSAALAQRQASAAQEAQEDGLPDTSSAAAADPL
# Tests used:
# Assay in all cases: co-IP; HEK293 cells cotransfected with V5-EHMT1 WT or mutants (doxycycline for 3 days) and FLAG-LSD1; Triton lysis buffer, brief sonication; anti-V5- or anti-FLAG-conjugated beads; immunoblotting
# [1] = molecular target: V5-tagged EHMT1-K450/451R (UniProt Q9H9B1)
# V5-tagged EHMT1-K450R = V5-tagged EHMT1-K450R (UniProt Q9H9B1)
# V5-tagged EHMT1-K451R = V5-tagged EHMT1-K451R (UniProt Q9H9B1)
# [2] = molecular target: V5-tagged EHMT1 wild type (euchromatin histone methyltransferase 1) (UniProt Q9H9B1)
# [3] = molecular target: T1, V5-tagged EHMT1 wild type (euchromatin …); details: remark: other sources report otherwise
Molecule,binding [1],binding (V5-tagged EHMT1-K450R),binding (V5-tagged EHMT1-K451R),binding [2],binding [3]
"REST (protein, UniProt Q13127 1-1097) MATQVMGQSSGGGGLFTSSGNIGMALPNDMYDLHDLSKAELAAPQLIMLANVALTGEVNGSCCDYLVGEERQMAELMPVGDNNFSDSEEGEGLEESADIKGEPHGLENMELRSLELSVVEPQPVFEASGAPDIYSSNKDLPPETPGAEDKGKSSKTKPFRCKPCQYEAESEEQFVHHIRVHSAKKFFVEESAEKQAKARESGSSTAEEGDFSKGPIRCDRCGYNTNRYDHYTAHLKHHTRAGDNERVYKCIICTYTTVSEYHWRKHLRNHFPRKVYTCGKCNYFSDRKNNYVQHVRTHTGERPYKCELCPYSSSQKTHLTRHMRTHSGEKPFKCDQCSYVASNQHEVTRHARQVHNGPKPLNCPHCDYKTADRSNFKKHVELHVNPRQFNCPVCDYAASKKCNLQYHFKSKHPTCPNKTMDVSKVKLKKTKKREADLPDNITNEKTEIEQTKIKGDVAGKKNEKSVKAEKRDVSKEKKPSNNVSVIQVTTRTRKSVTEVKEMDVHTGSNSEKFSKTKKSKRKLEVDSHSLHGPVNDEESSTKKKKKVESKSKNNSQEVPKGDSKVEENKKQNTCMKKSTKKKTLKNKSSKKSSKPPQKEPVEKGSAQMDPPQMGPAPTEAVQKGPVQVEPPPPMEHAQMEGAQIRPAPDEPVQMEVVQEGPAQKELLPPVEPAQMVGAQIVLAHMELPPPMETAQTEVAQMGPAPMEPAQMEVAQVESAPMQVVQKEPVQMELSPPMEVVQKEPVQIELSPPMEVVQKEPVKIELSPPIEVVQKEPVQMELSPPMGVVQKEPAQREPPPPREPPLHMEPISKKPPLRKDKKEKSNMQSERARKEQVLIEVGLVPVKDSWLLKESVSTEDLSPPSPPLPKENLREEASGDQKLLNTGEGNKEAPLQKVGAEEADESLPGLAANINESTHISSSGQNLNTPEGETLNGKHQTDSIVCEMKMDTDQNTRENLTGINSTVEEPVSPMLPPSAVEEREAVSKTALASPPATMAANESQEIDEDEGIHSHEGSDLSDNMSEGSDDSGLHGARPVPQESSRKNAKEALAVKAAKGDFVCIFCDRSFRKGKDYSKHLNRHLVNVYYLEEAAQGQE",binds,binds,binds,binds,
"EHMT2 (euchromatin histone methyltransferase 2), Q96KQ7 1-1210 (protein) MAAAAGAAAAAAAEGEAPAEMGALLLEKETRGATERVHGSLGDTPRSEETLPKATPDSLEPAGPSSPASVTVTVGDEGADTPVGATPLIGDESENLEGDGDLRGGRILLGHATKSFPSSPSKGGSCPSRAKMSMTGAGKSPPSVQSLAMRLLSMPGAQGAAAAGSEPPPATTSPEGQPKVHRARKTMSKPGNGQPPVPEKRPPEIQHFRMSDDVHSLGKVTSDLAKRRKLNSGGGLSEELGSARRSGEVTLTKGDPGSLEEWETVVGDDFSLYYDSYSVDERVDSDSKSEVEALTEQLSEEEEEEEEEEEEEEEEEEEEEEEEDEESGNQSDRSGSSGRRKAKKKWRKDSPWVKPSRKRRKREPPRAKEPRGVNGVGSSGPSEYMEVPLGSLELPSEGTLSPNHAGVSNDTSSLETERGFEELPLCSCRMEAPKIDRISERAGHKCMATESVDGELSGCNAAILKRETMRPSSRVALMVLCETHRARMVKHHCCPGCGYFCTAGTFLECHPDFRVAHRFHKACVSQLNGMVFCPHCGEDASEAQEVTIPRGDGVTPPAGTAAPAPPPLSQDVPGRADTSQPSARMRGHGEPRRPPCDPLADTIDSSGPSLTLPNGGCLSAVGLPLGPGREALEKALVIQESERRKKLRFHPRQLYLSVKQGELQKVILMLLDNLDPNFQSDQQSKRTPLHAAAQKGSVEICHVLLQAGANINAVDKQQRTPLMEAVVNNHLEVARYMVQRGGCVYSKEEDGSTCLHHAAKIGNLEMVSLLLSTGQVDVNAQDSGGWTPIIWAAEHKHIEVIRMLLTRGADVTLTDNEENICLHWASFTGSAAIAEVLLNARCDLHAVNYHGDTPLHIAARESYHDCVLLFLSRGANPELRNKEGDTAWDLTPERSDVWFALQLNRKLRLGVGNRAIRTEKIICRDVARGYENVPIPCVNGVDGEPCPEDYKYISENCETSTMNIDRNITHLQHCTCVDDCSSSNCLCGQLSIRCWYDKDGRLLQEFNKIEPPLIFECNQACSCWRNCKNRVVQSGIKVRLQLYRTAKMGWGVRALQTIPQGTFICEYVGELISDAEADVREDDSYLFDLDNKDGEVYCIDARYYGNISRFINHLCDPNIIPVRVFMLHQDLRFPRIAFFSSRDIRTGEELGFDYGDRFWDIKSKYFTCQCGSEKCKHSAEAIALEQSRLARLDPHPELLPELGSLPPVNT",,,,,binds

# Results, then the molecule that gave them:
binding [1],binding (V5-tagged EHMT1-K450R),binding (V5-tagged EHMT1-K451R),binding [2],binding [3],Molecule
binds,binds,binds,,,EHMT2 (euchromatin histone methyltransferase 2) (from UniProt Q96KQ7 1-1210)
binds,binds,binds,binds,,HDAC1 (from UniProt Q13547 1-482)
binds,binds,binds,binds,,HDAC2 (from UniProt Q92769 1-488)
